# Source: the supplement of paper PMC8007513
# The list shows a part of the results. Most values come without repeats; read them as rough.
# Test system: Saccharomyces cerevisiae BY4743
# Assay: growth (OD600) relative to untreated control; higher = less growth inhibition
# Conditions: compound concentration: 133 uM; 20 h
# Method: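 NMCCC compounds (133 uM, no IPBC) tested alone against Saccharomyces cerevisiae BY4743 in YPD, 96-well plates, starting OD600 ~0.1. Growth was read as OD600 at 20 h and expressed as % of the untreated control. Single pass.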
row,Compound,growth
1,CCn1c(SCC(=O)Nc2cccc(C#N)c2)nnc1N1CCOCC1,82.9%
2,CCOC(=O)c1c(C)[nH]c(CN(Cc2ccc(C)cc2)S(=O)(=O)c2c(C)noc2C)c1C,108%
3,COc1ccccc1NC(=O)c1ccc(NC(=O)CSc2nnc(C)n2N)cc1,98.4%
4,O=C(CCC\C1=N\[S](=O)(=O)C2=CC=CC=C2N1)OCC3=CC=CC=C3C#N,105%
5,Cc1nc(-c2cccs2)c(CCC(=O)N2CCCC2)s1,106%
6,Cc1ccc(N(CCC#N)C(=O)CSc2nnc3c(Cl)cc(Cl)cn23)cc1,100%
7,COc1ccc(-c2noc(CC(=O)N(CCC#N)c3ccccc3)n2)cc1,109%
8,COC(=O)\C1=C(/C)N\2C(=O)CSC2=N/C1C3=CC(=CC=C3OC)OC (centres undefined),89.1%
9,CCN(CC)CCNc1nc2c(c(=O)[nH]c(=O)n2C)n1CC(C)C,95.8%
10,CCc1c(C)sc(NS(=O)(=O)c2ccc(NC(C)=O)cc2)c1C#N,103%
11,Cc1cc(C(=O)COc2ccc(NC(=O)c3ccco3)cc2)c(C)n1C,108%
12,Cc1c(Cl)cccc1NC(=O)CNC(=O)CCCc1nc(O)c2ccccc2n1,105%
13,CC(NC(=O)CSc1nc(O)c2ccsc2n1)c1cccs1 (centres undefined),97%
14,Cc1noc(C(=O)N2CCC(Cc3ccccc3)CC2)c1Cl,92.8%
15,CCOC(=O)c1nnc2ccc(Cl)nn12,93.3%
16,COC(=O)\C1=C\N(CC2=CC=CS2)\C=C(/C1C3=CC=CC=C3OC(C)C)C(=O)OC,112%
17,CCO/C(O)=C1/C(CC)=Nc2ccccc2N=C1NS(=O)(=O)c1cccc(C(C)=O)c1,101%
18,Nn1c(SCC(=O)NC(=O)NCc2ccccc2)nnc1C1CC1,99.9%
19,Cc1ccc2c(c1)C(=O)CCCS2(=O)=O,112%
20,COc1cc(OC)c(NS(=O)(=O)c2cc3c(cc2C)N(C(C)=O)CCO3)cc1Cl,106%

row,Compound,growth
1,CCOC(=O)N1CCN(C(=O)c2cc(OC)c(OC)cc2-n2cccc2)CC1,103%
2,CC(NC(=O)CSc1nc(O)c(C#N)c(-c2ccc(Cl)cc2)n1)c1ccccc1 (centres undefined),116%
3,O=C(CSc1nc2ccc[nH]c-2n1)Nc1nccs1,101%
4,CC(C)CCN1CCC(CNS(=O)(=O)c2ccc3c(c2)C(C)(C)C(=O)N3C)CC1,99.9%
5,CCOC(F)(C(F)(F)F)C(F)(F)OC(F)(CC(F)(F)F)\C1=N\CCN1 (centres undefined),105%
6,CCSc1nnc2c(n1)OC(CC)N(C(C)=O)c1ccccc1-2 (centres undefined),92.1%
7,Cc1ccc2c(c1)NC(C(C)C)NS2(=O)=O (centres undefined),88.7%
8,Cc1cc(C(=O)N2CCN(C(=O)c3cccs3)CC2)[nH]n1,104%
9,Cc1nc2ccccc2nc1NCc1ccnc(OCC(F)(F)F)c1,105%
10,CCC(C)Nc1nc2c(c(=O)[nH]c(=O)n2C)n1CC(O)COc1ccc(C)cc1 (centres undefined),80.6%
11,CC1=CC=CC(=C1C)NC(=O)CNC(=O)CN2\N=C(\C(N)=O)C3=CC=CC=C3C2=O,98.3%
12,CCc1c(C)nc2nc(NCc3cc(Br)ccc3OC)nn2c1O,91.6%
13,CN(C)S(=O)(=O)c1cccc(COc2ncnc3c(Cl)cc(Cl)cc23)c1,109%
14,CCCCc1c(C)nn(-c2nc(C)c(C(=O)NC(C)C)s2)c1O,120%
15,COC(=O)C(Nc1nccs1)(OC)C(F)(F)F (centres undefined),91.1%
16,COc1cc(CSc2nnc(C)s2)c(OC)cc1Br,87.5%
17,COCc1c(C(=O)Nc2nc[nH]n2)sc2cccc(F)c12,89.4%
18,O=C(Nc1ccc(Cl)c(C(F)(F)F)c1)c1cc2ncccn2n1,106%
19,COc1cc(C(=O)OCC(=O)N(C)CC2COc3ccccc3O2)ccc1OC(C)C (centres undefined),101%

# Part of the list above, as tab-separated lines.
row	Compound	growth
13	CN(C)S(=O)(=O)c1cccc(COc2ncnc3c(Cl)cc(Cl)cc23)c1	109%
14	CCCCc1c(C)nn(-c2nc(C)c(C(=O)NC(C)C)s2)c1O	120%
